Test results from the supplement of paper PMC10849652.
The list shows a part of the results.

By UniProt entry, the sequences of proteins in these tests, tags left out. Where a name states a change or a piece, a line headed by the entry shows the natural chain unless it says otherwise.
UniProt Q99798: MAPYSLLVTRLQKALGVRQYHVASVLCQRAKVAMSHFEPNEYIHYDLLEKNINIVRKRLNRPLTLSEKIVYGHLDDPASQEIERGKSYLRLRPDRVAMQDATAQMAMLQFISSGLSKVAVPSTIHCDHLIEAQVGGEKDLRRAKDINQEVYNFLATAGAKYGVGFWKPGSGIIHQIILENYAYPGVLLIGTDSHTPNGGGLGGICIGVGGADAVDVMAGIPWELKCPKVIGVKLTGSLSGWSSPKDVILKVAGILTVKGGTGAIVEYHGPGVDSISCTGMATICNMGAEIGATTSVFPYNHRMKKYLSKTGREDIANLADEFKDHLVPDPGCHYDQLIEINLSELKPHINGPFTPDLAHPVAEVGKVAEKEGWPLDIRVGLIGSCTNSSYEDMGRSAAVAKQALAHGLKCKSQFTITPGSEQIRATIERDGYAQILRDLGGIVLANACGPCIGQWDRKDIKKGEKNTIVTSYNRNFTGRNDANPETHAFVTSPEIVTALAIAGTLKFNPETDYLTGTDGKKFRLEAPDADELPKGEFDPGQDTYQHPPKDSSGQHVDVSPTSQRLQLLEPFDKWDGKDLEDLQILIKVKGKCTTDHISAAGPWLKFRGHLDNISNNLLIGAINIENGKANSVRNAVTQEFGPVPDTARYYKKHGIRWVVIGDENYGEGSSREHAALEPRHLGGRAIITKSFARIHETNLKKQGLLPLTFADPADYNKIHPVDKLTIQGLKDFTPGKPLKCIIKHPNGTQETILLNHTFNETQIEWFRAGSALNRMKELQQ
UniProt Q9H7C9: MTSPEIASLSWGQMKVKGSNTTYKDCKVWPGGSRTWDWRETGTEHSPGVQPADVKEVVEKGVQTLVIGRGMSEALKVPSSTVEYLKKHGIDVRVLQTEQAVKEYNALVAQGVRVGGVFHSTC
UniProt Q9BTE6: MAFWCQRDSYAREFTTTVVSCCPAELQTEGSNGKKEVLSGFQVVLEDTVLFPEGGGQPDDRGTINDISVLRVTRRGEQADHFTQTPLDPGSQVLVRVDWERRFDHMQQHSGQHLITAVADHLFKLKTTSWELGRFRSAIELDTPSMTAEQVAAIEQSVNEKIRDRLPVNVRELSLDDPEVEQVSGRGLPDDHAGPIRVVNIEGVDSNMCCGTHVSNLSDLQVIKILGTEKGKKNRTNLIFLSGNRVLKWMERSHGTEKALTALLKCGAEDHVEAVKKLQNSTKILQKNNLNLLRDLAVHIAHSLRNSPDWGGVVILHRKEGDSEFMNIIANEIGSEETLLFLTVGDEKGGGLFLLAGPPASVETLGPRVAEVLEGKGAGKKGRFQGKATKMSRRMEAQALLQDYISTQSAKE
UniProt Q9H3P7: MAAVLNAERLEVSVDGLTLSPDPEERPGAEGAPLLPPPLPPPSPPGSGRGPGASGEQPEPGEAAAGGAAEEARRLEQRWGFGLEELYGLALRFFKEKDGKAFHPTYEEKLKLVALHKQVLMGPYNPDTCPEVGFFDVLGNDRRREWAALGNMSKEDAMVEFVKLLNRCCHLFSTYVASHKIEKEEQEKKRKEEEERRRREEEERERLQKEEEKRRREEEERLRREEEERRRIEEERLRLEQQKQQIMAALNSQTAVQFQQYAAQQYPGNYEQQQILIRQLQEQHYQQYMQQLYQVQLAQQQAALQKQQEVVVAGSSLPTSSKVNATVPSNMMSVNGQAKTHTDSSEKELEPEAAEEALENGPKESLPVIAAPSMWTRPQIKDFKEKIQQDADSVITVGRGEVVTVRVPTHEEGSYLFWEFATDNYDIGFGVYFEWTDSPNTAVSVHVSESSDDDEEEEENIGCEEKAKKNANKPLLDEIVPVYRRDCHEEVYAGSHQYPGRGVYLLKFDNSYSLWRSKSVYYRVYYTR
UniProt P11310: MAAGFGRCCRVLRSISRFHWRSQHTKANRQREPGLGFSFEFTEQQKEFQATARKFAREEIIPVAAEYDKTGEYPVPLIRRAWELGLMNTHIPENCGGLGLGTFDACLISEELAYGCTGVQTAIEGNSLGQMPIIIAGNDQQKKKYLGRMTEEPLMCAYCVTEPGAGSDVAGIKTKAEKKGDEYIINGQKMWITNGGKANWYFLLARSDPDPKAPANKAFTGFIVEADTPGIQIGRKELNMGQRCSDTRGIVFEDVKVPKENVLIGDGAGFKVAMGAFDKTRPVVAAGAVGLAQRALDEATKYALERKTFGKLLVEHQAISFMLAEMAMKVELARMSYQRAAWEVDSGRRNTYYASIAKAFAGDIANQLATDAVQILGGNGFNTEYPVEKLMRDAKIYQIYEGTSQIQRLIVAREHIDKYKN
UniProt Q8NFV4: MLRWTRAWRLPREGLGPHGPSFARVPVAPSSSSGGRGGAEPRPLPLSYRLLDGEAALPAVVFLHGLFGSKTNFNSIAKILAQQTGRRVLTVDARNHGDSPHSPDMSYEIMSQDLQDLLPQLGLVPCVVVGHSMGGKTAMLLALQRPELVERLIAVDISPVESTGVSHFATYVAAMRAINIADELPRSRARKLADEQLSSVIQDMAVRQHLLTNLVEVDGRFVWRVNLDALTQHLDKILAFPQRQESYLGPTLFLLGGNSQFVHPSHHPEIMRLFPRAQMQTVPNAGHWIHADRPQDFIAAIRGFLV
UniProt Q9NUJ1: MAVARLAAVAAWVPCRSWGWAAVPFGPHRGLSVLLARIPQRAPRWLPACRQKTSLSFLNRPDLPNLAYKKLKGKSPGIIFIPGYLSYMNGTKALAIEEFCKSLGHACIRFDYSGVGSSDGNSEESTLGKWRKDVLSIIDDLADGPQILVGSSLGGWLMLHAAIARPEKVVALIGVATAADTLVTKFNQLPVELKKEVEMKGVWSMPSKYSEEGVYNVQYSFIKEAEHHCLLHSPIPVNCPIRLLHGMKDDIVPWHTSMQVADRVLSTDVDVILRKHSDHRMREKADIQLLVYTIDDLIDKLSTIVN
UniProt P16219: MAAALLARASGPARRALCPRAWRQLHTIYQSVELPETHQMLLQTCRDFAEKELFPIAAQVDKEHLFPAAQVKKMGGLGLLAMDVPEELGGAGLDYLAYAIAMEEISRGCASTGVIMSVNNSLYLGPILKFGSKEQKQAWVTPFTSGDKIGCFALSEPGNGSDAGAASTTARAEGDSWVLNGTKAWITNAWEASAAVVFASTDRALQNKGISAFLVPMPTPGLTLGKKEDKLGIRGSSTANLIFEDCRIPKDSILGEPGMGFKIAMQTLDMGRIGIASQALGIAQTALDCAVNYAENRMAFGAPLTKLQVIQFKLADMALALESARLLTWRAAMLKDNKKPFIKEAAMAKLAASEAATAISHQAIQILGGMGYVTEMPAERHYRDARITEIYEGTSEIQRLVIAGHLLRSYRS
UniProt Q6PD74: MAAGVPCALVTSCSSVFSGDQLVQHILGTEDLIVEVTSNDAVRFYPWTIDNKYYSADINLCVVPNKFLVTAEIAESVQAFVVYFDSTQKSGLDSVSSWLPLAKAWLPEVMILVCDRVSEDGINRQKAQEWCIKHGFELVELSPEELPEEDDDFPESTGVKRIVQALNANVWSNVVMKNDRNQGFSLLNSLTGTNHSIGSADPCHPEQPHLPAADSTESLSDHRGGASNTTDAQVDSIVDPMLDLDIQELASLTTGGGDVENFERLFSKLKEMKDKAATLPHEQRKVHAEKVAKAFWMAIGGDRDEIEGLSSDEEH
UniProt Q86V21: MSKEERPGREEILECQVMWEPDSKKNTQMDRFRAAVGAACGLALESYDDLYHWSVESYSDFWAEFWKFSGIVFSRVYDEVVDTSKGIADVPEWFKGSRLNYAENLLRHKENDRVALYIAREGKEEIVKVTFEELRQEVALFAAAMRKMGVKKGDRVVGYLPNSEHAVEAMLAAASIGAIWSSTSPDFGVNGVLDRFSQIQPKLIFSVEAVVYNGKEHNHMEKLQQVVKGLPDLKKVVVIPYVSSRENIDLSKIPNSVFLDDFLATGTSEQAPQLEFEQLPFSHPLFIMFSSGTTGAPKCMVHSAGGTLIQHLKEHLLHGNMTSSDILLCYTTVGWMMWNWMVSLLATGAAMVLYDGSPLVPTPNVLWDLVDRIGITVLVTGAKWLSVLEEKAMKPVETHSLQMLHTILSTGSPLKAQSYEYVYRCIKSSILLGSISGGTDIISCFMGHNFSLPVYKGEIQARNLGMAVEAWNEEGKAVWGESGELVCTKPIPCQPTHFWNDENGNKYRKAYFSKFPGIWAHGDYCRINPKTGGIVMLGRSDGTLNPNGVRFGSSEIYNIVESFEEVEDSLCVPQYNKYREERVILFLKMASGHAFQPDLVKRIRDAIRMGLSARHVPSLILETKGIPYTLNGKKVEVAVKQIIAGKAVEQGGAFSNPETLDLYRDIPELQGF
UniProt Q9NYB9: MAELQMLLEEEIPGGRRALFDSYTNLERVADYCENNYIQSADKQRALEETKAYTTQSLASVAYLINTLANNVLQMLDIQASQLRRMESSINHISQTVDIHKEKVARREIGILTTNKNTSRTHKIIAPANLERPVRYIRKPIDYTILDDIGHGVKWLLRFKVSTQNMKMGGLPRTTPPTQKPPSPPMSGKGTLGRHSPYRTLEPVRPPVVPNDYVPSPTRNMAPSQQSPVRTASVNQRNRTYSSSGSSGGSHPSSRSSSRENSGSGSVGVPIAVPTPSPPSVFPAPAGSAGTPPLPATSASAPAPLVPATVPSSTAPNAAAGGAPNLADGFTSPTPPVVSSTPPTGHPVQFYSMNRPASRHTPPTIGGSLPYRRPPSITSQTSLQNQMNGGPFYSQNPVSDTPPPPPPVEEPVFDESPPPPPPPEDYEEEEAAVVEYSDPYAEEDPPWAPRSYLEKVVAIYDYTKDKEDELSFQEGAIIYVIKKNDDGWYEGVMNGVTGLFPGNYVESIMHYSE
UniProt Q5JTZ9, whole entry, looked up: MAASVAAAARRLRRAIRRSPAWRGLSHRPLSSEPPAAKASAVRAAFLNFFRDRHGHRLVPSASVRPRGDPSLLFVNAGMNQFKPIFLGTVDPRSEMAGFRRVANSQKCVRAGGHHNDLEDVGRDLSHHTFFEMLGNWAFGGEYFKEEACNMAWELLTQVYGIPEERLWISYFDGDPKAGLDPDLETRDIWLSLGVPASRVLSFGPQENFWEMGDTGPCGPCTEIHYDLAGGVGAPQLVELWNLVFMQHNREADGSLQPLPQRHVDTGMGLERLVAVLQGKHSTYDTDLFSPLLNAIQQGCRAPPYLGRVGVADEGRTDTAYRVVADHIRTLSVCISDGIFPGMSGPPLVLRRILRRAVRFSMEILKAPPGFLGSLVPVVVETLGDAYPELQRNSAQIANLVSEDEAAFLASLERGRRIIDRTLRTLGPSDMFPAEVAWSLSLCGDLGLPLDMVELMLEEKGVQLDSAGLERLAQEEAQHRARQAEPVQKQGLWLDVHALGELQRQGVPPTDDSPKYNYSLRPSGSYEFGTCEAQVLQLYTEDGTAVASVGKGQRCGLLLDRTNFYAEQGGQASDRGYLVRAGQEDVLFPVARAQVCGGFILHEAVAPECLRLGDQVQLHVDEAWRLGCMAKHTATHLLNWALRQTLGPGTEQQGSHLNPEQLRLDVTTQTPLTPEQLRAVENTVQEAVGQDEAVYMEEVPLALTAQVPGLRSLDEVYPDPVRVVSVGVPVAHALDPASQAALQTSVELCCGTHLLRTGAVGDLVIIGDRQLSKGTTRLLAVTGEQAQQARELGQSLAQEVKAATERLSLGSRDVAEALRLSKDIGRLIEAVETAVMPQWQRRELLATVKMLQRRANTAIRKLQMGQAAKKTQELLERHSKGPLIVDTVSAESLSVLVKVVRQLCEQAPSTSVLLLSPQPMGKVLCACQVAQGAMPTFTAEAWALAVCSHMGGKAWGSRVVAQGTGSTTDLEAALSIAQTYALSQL
UniProt Q9NUT2: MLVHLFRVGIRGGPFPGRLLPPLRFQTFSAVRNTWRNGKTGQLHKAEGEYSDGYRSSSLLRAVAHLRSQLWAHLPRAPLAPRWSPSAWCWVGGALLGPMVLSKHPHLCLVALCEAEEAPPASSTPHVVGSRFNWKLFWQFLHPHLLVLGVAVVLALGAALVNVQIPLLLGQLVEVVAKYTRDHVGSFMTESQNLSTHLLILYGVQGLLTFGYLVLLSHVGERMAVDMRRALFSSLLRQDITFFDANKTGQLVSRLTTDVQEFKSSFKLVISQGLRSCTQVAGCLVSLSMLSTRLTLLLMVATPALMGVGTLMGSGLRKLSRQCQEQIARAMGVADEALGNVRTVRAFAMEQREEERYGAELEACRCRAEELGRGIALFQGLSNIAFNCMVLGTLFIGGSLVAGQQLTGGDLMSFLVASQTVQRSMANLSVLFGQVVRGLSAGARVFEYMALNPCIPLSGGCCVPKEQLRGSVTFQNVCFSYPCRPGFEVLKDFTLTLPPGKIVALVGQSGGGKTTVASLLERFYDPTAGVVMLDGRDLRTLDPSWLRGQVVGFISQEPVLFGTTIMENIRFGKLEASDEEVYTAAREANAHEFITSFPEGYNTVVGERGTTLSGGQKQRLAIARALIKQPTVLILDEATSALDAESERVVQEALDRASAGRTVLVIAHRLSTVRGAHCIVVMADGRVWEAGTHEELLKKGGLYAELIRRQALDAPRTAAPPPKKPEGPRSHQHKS

Legend:
Assay in all cases: log2 fold change, soluble protein after heating vs DMSO (PISA); higher = thermal stabilisation; K562 lysate, 10 uM; active = over 0.2 and 3.5 SD of the protein, either way, in both replicates (recomputed)
vemurafenib = compound: CCCS(=O)(=O)Nc1ccc(F)c(C(=O)c2c[nH]c3ncc(-c4ccc(Cl)cc4)cc23)c1F [vemurafenib]
Procedure, shortened: (§1)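 The values are log-two fold changes in thermal stability compared with solvent controls and come from duplicates. They were obtained by TMTpro 16plex LC-MS/MS, with channel sums equalised, on the supernatant after 21,000xg for 90 min. That supernatant came from crude K562 extract at 1 mg/mL protein treated with 10 μM compound for 30 min, heated for 3 min across 48°C-58°C, pooled and brought to 0.5% NP-40 at 4°C.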

[1] = compound: CCCS(=O)(=O)Nc1ccc(F)c(C(=O)c2c[nH]c3ncc(Cl)cc23)c1F
Procedure, shortened: as §1

barasertib = compound: CCN(CCCOc1ccc2c(Nc3cc(CC(=O)Nc4cccc(F)c4)[nH]n3)ncnc2c1)CCOP(=O)(O)O [barasertib]
Procedure, shortened: as §1

[2] = compound: CC[C@@H]1C(=O)N(C)c2cnc(Nc3ccc(C(=O)NC4CCN(C)CC4)cc3OC)nc2N1C1CCCC1
Procedure, shortened: as §1

volasertib = compound: CC[C@@H]1C(=O)N(C)c2cnc(Nc3ccc(C(=O)N[C@H]4CC[C@H](N5CCN(CC6CC6)CC5)CC4)cc3OC)nc2N1C(C)C [volasertib]
Procedure, shortened: as §1

[3] = compound: CCn1c(C(=O)N(C2CC2)C2CC2)cc2c3c(ncn3C)c(Nc3cc(C)n(C)n3)nc21
Procedure, shortened: as §1

[4] = compound: CCn1cc(-c2ccnc3[nH]c(-c4cccc(CN(C)C)c4)cc23)c(-c2ccc(NC(=O)N(C)C)cc2)n1
Procedure, shortened: as §1

[5] = compound: CN1CCC(CNc2ccc3ncc(-c4cccc(OC(F)(F)F)c4)n3n2)CC1
Procedure, shortened: as §1

saracatinib = compound: CN1CCN(CCOc2cc(OC3CCOCC3)c3c(Nc4c(Cl)ccc5c4OCO5)ncnc3c2)CC1 [saracatinib]
Procedure, shortened: as §1

sotrastaurin = compound: CN1CCN(c2nc(C3=C(c4c[nH]c5ccccc45)C(=O)NC3=O)c3ccccc3n2)CC1 [sotrastaurin]
Procedure, shortened: as §1

alvocidib = compound: CN1CC[C@H](c2c(O)cc(O)c3c(=O)cc(-c4ccccc4Cl)oc23)[C@H](O)C1 [alvocidib]
Procedure, shortened: as §1

Tubastatin A = compound: CN1CCc2c(c3ccccc3n2Cc2ccc(C(=O)NO)cc2)C1 [Tubastatin A]
Procedure, shortened: as §1

[6] = compound: CNC(=O)C1=CC=CC=C1NC2=NC(=NC=C2Cl)NC3=C(C=C(C=C3)N4CCOCC4)OC
Procedure, shortened: as §1

defactinib = compound: CNC(=O)c1ccc(Nc2ncc(C(F)(F)F)c(NCc3nccnc3N(C)S(C)(=O)=O)n2)cc1 [defactinib]
Procedure, shortened: as §1

[7] = compound: CNc1nc(-c2ccc3c(N)n[nH]c3c2)cc(N2C[C@@H](C(=O)NC3CCCCC3)CC[C@H]2C)n1
Procedure, shortened: as §1

encorafenib = compound: COC(=O)N[C@@H](C)CNc1nccc(-c2cn(C(C)C)nc2-c2cc(Cl)cc(NS(C)(=O)=O)c2F)n1 [encorafenib]
Procedure, shortened: as §1

[8] = compound: COC(=O)[C@H](CCSC)NC(=O)C1=C(C=C(C=C1)NC[C@H](CS)N)C2=CC=CC=C2
Procedure, shortened: as §1

alisertib = compound: COc1cc(Nc2ncc3c(n2)-c2ccc(Cl)cc2C(c2c(F)cccc2OC)=NC3)ccc1C(=O)O [alisertib]
Procedure, shortened: as §1

[9] = compound: COc1cc2nc(-c3cc(F)ccc3O)nc(N[C@@H]3CNC[C@H]3C(C)(C)O)c2cc1OC
Procedure, shortened: as §1

gefitinib = compound: COc1cc2ncnc(Nc3ccc(F)c(Cl)c3)c2cc1OCCCN1CCOCC1 [gefitinib]
Procedure, shortened: as §1

Measured: log2 fold change

ACO2 (UniProt Q99798)
inactive: vemurafenib 0.034 | [1] -0.003 | barasertib -0.004 | [2] 0.002 | volasertib -0.016 | [3] -0.027 | [4] -0.107 | [5] 0.042 | saracatinib -0.013 | sotrastaurin 0.008 | alvocidib -0.022 | Tubastatin A 0.042 | [6] -0.038 | defactinib -0.058 | [7] -0.008 | encorafenib -0.054 | [8] 0.014 | alisertib 0.02 | [9] -0.007 | gefitinib 0.009

AAMDC (UniProt Q9H7C9)
inactive: vemurafenib -0.011 | [1] -0.018 | barasertib 0.122 | [2] 0.031 | volasertib 0.03 | [3] 0.017 | [4] -0.033 | [5] -0.032 | saracatinib 0.009 | sotrastaurin -0.021 | alvocidib 0.006 | Tubastatin A 0.034 | [6] 0.043 | defactinib 0.115 | [7] -0.026 | encorafenib 0.001 | [8] -0.044 | alisertib 0.04 | [9] -0.018 | gefitinib -0.091

AARSD1 isoform 3 (UniProt Q9BTE6)
inactive: vemurafenib 0.029 | [1] 0.008 | barasertib 0.036 | [2] -0.059 | volasertib -0.024 | [3] 0.034 | [4] -0.009 | [5] -0.104 | saracatinib 0.035 | sotrastaurin 0.008 | alvocidib 0.046 | Tubastatin A -0.034 | [6] -0.036 | defactinib -0.012 | [7] -0.053 | encorafenib -0.021 | [8] 0.148 | alisertib 0.001 | [9] 0.014 | gefitinib 0

ABHD14B (UniProt Q96IU4)
inactive: vemurafenib 0.004 | [1] 0.015 | barasertib 0.081 | [2] -0.057 | volasertib 0.012 | [3] 0.009 | [4] -0.014 | [5] 0 | saracatinib 0.022 | sotrastaurin 0.007 | alvocidib 0.016 | Tubastatin A 0.011 | [6] 0.01 | defactinib 0.026 | [7] 0.063 | encorafenib 0.006 | [8] -0.012 | alisertib 0.004 | [9] -0.032 | gefitinib -0.025

ACBD3 (UniProt Q9H3P7)
inactive: vemurafenib 0.013 | [1] 0.048 | barasertib 0.033 | [2] 0.009 | volasertib 0.001 | [3] 0.001 | [4] 0.016 | [5] 0.02 | saracatinib 0.008 | sotrastaurin 0.025 | alvocidib -0.006 | Tubastatin A -0.044 | [6] 0.029 | defactinib 0.003 | [7] -0.037 | encorafenib 0.004 | [8] -0.014 | alisertib -0.027 | [9] 0.004 | gefitinib -0.013

ACADM isoform 2 (UniProt P11310)
inactive: vemurafenib 0.02 | [1] -0.011 | barasertib 0.069 | [2] 0.001 | volasertib -0.062 | [3] -0.051 | [4] -0.031 | [5] -0.046 | saracatinib -0.023 | alvocidib -0.022 | Tubastatin A -0.012 | [6] 0.046 | defactinib -0.01 | encorafenib -0.032 | [8] 0.13 | alisertib 0.062 | [9] 0.09 | gefitinib -0.024
active: sotrastaurin 0.67 | [7] 0.386

ABHD11 (UniProt Q8NFV4)
inactive: vemurafenib 0.062 | [1] -0.051 | barasertib 0.093 | [2] -0.029 | volasertib -0.082 | [3] 0.028 | [4] -0.109 | [5] 0.024 | saracatinib -0.026 | sotrastaurin -0.016 | alvocidib 0 | Tubastatin A 0.032 | [6] -0.066 | defactinib 0.034 | [7] 0.087 | encorafenib -0.028 | [8] 0.173 | alisertib -0.027 | [9] 0.022 | gefitinib 0.004

ABHD10 (UniProt Q9NUJ1)
inactive: vemurafenib -0.017 | [1] 0.006 | barasertib 0.003 | [2] 0.06 | volasertib 0.029 | [3] 0.006 | [4] 0.072 | [5] -0.009 | saracatinib -0.001 | sotrastaurin 0 | alvocidib 0.007 | Tubastatin A 0.011 | [6] -0.002 | defactinib -0.025 | [7] 0.042 | encorafenib -0.002 | [8] -0.045 | alisertib -0.002 | [9] -0.019 | gefitinib 0.02

ACADS (UniProt P16219)
inactive: vemurafenib 0.023 | [1] 0.017 | barasertib 0.006 | [2] -0.039 | volasertib -0.016 | [3] -0.02 | [4] 0.016 | [5] 0.003 | saracatinib -0.026 | sotrastaurin -0.026 | alvocidib -0.011 | Tubastatin A -0.003 | [6] 0.019 | defactinib -0.011 | [7] 0.014 | encorafenib -0.034 | [8] 0.071 | alisertib -0.003 | [9] -0.037 | gefitinib -0.023

AAGAB (UniProt Q6PD74)
inactive: vemurafenib 0.055 | [1] 0.037 | barasertib -0.029 | [2] -0.004 | volasertib -0.027 | [3] -0.007 | [4] 0.019 | [5] -0.022 | saracatinib 0.044 | sotrastaurin 0.018 | alvocidib -0.015 | Tubastatin A -0.06 | [6] 0.02 | defactinib -0.027 | [7] -0.025 | encorafenib 0.034 | [8] 0.039 | alisertib -0.016 | [9] -0.045 | gefitinib 0.013

AACS (UniProt Q86V21)
inactive: vemurafenib 0.033 | [1] -0.059 | barasertib 0.078 | [2] -0.017 | volasertib -0.037 | [3] 0.064 | [4] 0.01 | [5] -0.07 | saracatinib 0.013 | sotrastaurin 0.012 | alvocidib 0 | Tubastatin A -0.056 | [6] 0.019 | defactinib 0 | [7] -0.101 | encorafenib -0.024 | [8] 0.058 | alisertib 0.015 | [9] 0.013 | gefitinib -0.012

ACCS (UniProt Q96QU6)
inactive: vemurafenib 0.182 | [1] 0.039 | barasertib 0.04 | [2] 0.022 | volasertib 0.029 | [3] -0.171 | [4] -0.221 | [5] 0.09 | saracatinib 0.06 | sotrastaurin -0.023 | alvocidib -0.063 | Tubastatin A 0 | [6] -0.022 | defactinib -0.121 | [7] 0.212 | encorafenib 0.155 | [8] -0.202 | alisertib 0.024 | [9] 0.035 | gefitinib -0.104

ABI2 (UniProt Q9NYB9)
inactive: vemurafenib -0.033 | [1] 0 | barasertib 0.038 | [2] -0.027 | volasertib -0.008 | [3] -0.025 | [4] 0.014 | [5] -0.061 | saracatinib -0.007 | sotrastaurin -0.032 | alvocidib 0.063 | Tubastatin A 0.003 | [6] -0.003 | defactinib 0.018 | [7] -0.066 | encorafenib 0.003 | [8] -0.108 | alisertib -0.01 | [9] -0.054 | gefitinib 0.029

AARS2 (UniProt Q5JTZ9)
inactive: vemurafenib 0.041 | [1] -0.052 | barasertib 0.029 | [2] -0.055 | volasertib -0.037 | [3] 0.027 | [4] 0.027 | [5] -0.053 | saracatinib 0.003 | sotrastaurin 0.031 | alvocidib 0.064 | Tubastatin A -0.093 | [6] -0.011 | defactinib -0.05 | [7] -0.017 | encorafenib 0.006 | [8] 0.106 | alisertib 0.02 | [9] -0.119 | gefitinib -0.02

Two neighbouring entries from above, for reference:
AAGAB (UniProt Q6PD74)
inactive: vemurafenib 0.055 | [1] 0.037 | barasertib -0.029 | [2] -0.004 | volasertib -0.027 | [3] -0.007 | [4] 0.019 | [5] -0.022 | saracatinib 0.044 | sotrastaurin 0.018 | alvocidib -0.015 | Tubastatin A -0.06 | [6] 0.02 | defactinib -0.027 | [7] -0.025 | encorafenib 0.034 | [8] 0.039 | alisertib -0.016 | [9] -0.045 | gefitinib 0.013

AACS (UniProt Q86V21)
inactive: vemurafenib 0.033 | [1] -0.059 | barasertib 0.078 | [2] -0.017 | volasertib -0.037 | [3] 0.064 | [4] 0.01 | [5] -0.07 | saracatinib 0.013 | sotrastaurin 0.012 | alvocidib 0 | Tubastatin A -0.056 | [6] 0.019 | defactinib 0 | [7] -0.101 | encorafenib -0.024 | [8] 0.058 | alisertib 0.015 | [9] 0.013 | gefitinib -0.012

The list goes on.

ABCB8 (UniProt Q9NUT2)
inactive: vemurafenib 0.047 | [1] 0.037 | barasertib 0.113 | [2] -0.064 | volasertib -0.019 | [3] 0.002 | [4] 0.036 | [5] -0.004 | saracatinib -0.007 | sotrastaurin 0.046 | alvocidib 0.004 | Tubastatin A -0.109 | [6] 0.081 | defactinib 0.04 | [7] 0.011 | encorafenib 0.047 | [8] -0.008 | alisertib -0.122 | [9] -0.018 | gefitinib -0.136
